Experimental data published in patent US20110158980A1, “METHODS TO TREAT AND SCREEN FOR AGENTS TO TREAT OBESITY” (TRUSTEES OF TUFTS COLLEGE, priority 2008, published 2011).
At least one structure is not confirmed: it was looked up by name or label, or the drawing left a doubt.

Legend:
Assay type in all cases: cell-based
[1] = test system: 3T3-L1 adipocytes; assay: Metabolic flux analysis (stoichiometric model) of adipocyte intermediary metabolism
Method: 3T3-L1 preadipocytes were plated onto 24-well plates and expanded in preadipocyte growth medium consisting of DMEM supplemented with calf serum (10% v/v), penicillin and streptomycin. Medium was replenished every other day. Two days post-confluence, the cells were induced to differentiate using an adipogenic cocktail (1 μg/ml insulin, 0.5 mM isobutylmethylxanthine, and 1 μM dexamethasone) added to a basal medium (DMEM with 10% fetal bovine serum and penicillin/streptomycin). After 48 hrs, the first medium was replaced with a second induction medium consisting of the basal adipocyte medium supplemented with only insulin. […] This basal medium was replenished every other day during the remainder of the culture experiments.
A stoichiometric model of adipocyte central carbon metabolism was constructed as described previously (Si Y, Yoon J, Lee K. American journal of physiology 2007; 292:E1637-46). The model consisted of the major pathways of central carbon metabolism (Table 1). Intracellular fluxes were estimated by solving a constrained non-linear optimization problem with stoichiometric and thermodynamic constraints (Nolan R P, Fenley A P, Lee K. Metab Eng 2006; 8:30-45).

[2] = test system: 3T3-L1 adipocytes; assay: Metabolite assays (TG, FFA, glucose, lactate, glycerol) on cell lysates and spent medium
Method: 3T3-L1 preadipocytes were plated onto 24-well plates and expanded in preadipocyte growth medium consisting of DMEM supplemented with calf serum (10% v/v), penicillin and streptomycin. Medium was replenished every other day. Two days post-confluence, the cells were induced to differentiate using an adipogenic cocktail (1 μg/ml insulin, 0.5 mM isobutylmethylxanthine, and 1 μM dexamethasone) added to a basal medium (DMEM with 10% fetal bovine serum and penicillin/streptomycin). After 48 hrs, the first medium was replaced with a second induction medium consisting of the basal adipocyte medium supplemented with only insulin. […]
Metabolite measurements were performed both on cell lysates and spent medium samples as described previously (Si Y, Yoon J, Lee K. American journal of physiology 2007; 292:E1637-46). […] Free glycerol, TG and free fatty acids (FFAs) were measured using enzymatic assay kits (SIGMA™). Glucose and lactate concentrations were measured using the methods of Trinder (Trinder P. J Clin Pathol 1969; 22:158-61) and Loomis (Loomis M E. J Lab Clin Med 1961; 57:966-9), respectively. Amino acids were quantified by HPLC using fluorescence-based detection following pre-column derivatization of primary or secondary amines with 6-aminoquinolyl-N-hydroxysuccinimidyl-carbamate (Cohen S A, De Antonis K M. J Chromatogr A 1994; 661:25-34). […]

[3] = test system: 3T3-L1 cells; assay: Oil Red O staining of intracellular lipid; details: day 12 post-induction; 20 mM oxamate; 5 mM and 10 mM phenylacetate

## O=C(O)Cc1ccccc1 [phenylacetate]
[1]; 5 mM phenylacetate
  Effect on total flux of pyruvate into the mitochondrial reactions: not affected
[1]; phenylacetate
  Effect on the other reactions of the TCA cycle: not affected
[2]; 10 mM phenylacetate, day 12 post-induction
  Reduction in intracellular triglyceride, rank among treatments: largest effect
[2]; targeted reactions: lactate dehydrogenase (oxamate), pyruvate carboxylase (phenylacetate)
  Inhibition of the targeted reactions, dose dependence: dose-dependent
[3]
  Lipid content by Oil Red O staining vs untreated controls: contained less lipid than the untreated controls
